Reference: patent US7833967B2, “Synthetic antimicrobial polypeptides” (priority 2003, dated 2010)
Not every detail of the peptide structures is certain; ends, links or a residue may be inferred. Ends that are not written are not given here.

Legend:
Assay type in all cases: cell-based
M. luteus (ATCC 9341) [1] = test: MBC determination (NCCLS protocol)
B. subtilis (ATCC 6633) [2] = test: MBC determination (NCCLS protocol)
S. carnosus [3] = test: MEC determination (radial diffusion assay)
M. luteus (ATCC 9341) [4] = test: MIC determination (NCCLS protocol)
S. carnosus [5] = test: MBC determination (NCCLS protocol)
[6] = test system: S. cerevisiae (ATCC 9763); test: MBC determination (NCCLS protocol)
S. simulans [7] = test: MEC determination (radial diffusion assay)
[8] = test system: S. cerevisiae (ATCC 9763); test: MEC determination (radial diffusion assay)
[9] = test system: S. cerevisiae (ATCC 9763); test: MIC determination (NCCLS protocol)
S. carnosus [10] = test: MIC determination (NCCLS protocol)
E. coli (ATCC 10536) [11] = test: MIC determination (NCCLS protocol); settings: peptide dissolved in 0.01% acetic acid and 0.1% BSA
E. coli (ATCC 10536) [12] = test: MBC determination (NCCLS protocol)
B. subtilis (ATCC 6633) [13] = test: MEC determination (radial diffusion assay)
E. coli (ATCC 10536) [14] = test: MEC determination (radial diffusion assay)
S. simulans [15] = test: MBC determination (NCCLS protocol)
B. subtilis (ATCC 6633) [16] = test: MIC determination (NCCLS protocol)
S. simulans [17] = test: MIC determination (NCCLS protocol)
M. luteus (ATCC 9341) [18] = test: MEC determination (radial diffusion assay)

RRRPFRPPFRPPFRPPVRPPVRPPFRP [SEQ ID NO: 79]
MBC (M. luteus (ATCC 9341) [1]): 64 micrograms/ml | MBC (B. subtilis (ATCC 6633) [2]): 64 micrograms/ml | MEC (S. carnosus [3]): 2.0 micrograms/ml | MIC (M. luteus (ATCC 9341) [4]): 64 micrograms/ml | MBC (S. carnosus [5]): >128 micrograms/ml | MBC [6]: >128 micrograms/ml | MEC (S. simulans [7]): 1.1 micrograms/ml | MEC [8]: 32 micrograms/ml | MIC [9]: >128 micrograms/ml | MIC (S. carnosus [10]): 16 micrograms/ml | MIC (E. coli (ATCC 10536) [11]): 64 micrograms/ml | MBC (E. coli (ATCC 10536) [12]): >128 micrograms/ml | MEC (B. subtilis (ATCC 6633) [13]): 3.6 micrograms/ml | MEC (E. coli (ATCC 10536) [14]): 3.0 micrograms/ml | MBC (S. simulans [15]): >128 micrograms/ml | MIC (B. subtilis (ATCC 6633) [16]): 64 micrograms/ml | MIC (S. simulans [17]): 64 micrograms/ml | MEC (M. luteus (ATCC 9341) [18]): 0.5 micrograms/ml

RRRPPRLPRPFPVRPPPRFPRPFPLRP [SEQ ID NO: 239]
MBC (M. luteus (ATCC 9341) [1]): >128 micrograms/ml | MBC (B. subtilis (ATCC 6633) [2]): 64 micrograms/ml | MEC (S. carnosus [3]): 1.8 micrograms/ml | MIC (M. luteus (ATCC 9341) [4]): 64 micrograms/ml | MBC (S. carnosus [5]): 64 micrograms/ml | MBC [6]: >128 micrograms/ml | MEC (S. simulans [7]): 0.9 micrograms/ml | MEC [8]: >128 micrograms/ml | MIC [9]: >128 micrograms/ml | MIC (S. carnosus [10]): 4 micrograms/ml | MIC (E. coli (ATCC 10536) [11]): 64 micrograms/ml | MBC (E. coli (ATCC 10536) [12]): 128 micrograms/ml | MEC (B. subtilis (ATCC 6633) [13]): 2.0 micrograms/ml | MEC (E. coli (ATCC 10536) [14]): 3.0 micrograms/ml | MBC (S. simulans [15]): 32 micrograms/ml | MIC (B. subtilis (ATCC 6633) [16]): 4 micrograms/ml | MIC (S. simulans [17]): 8 micrograms/ml | MEC (M. luteus (ATCC 9341) [18]): 0.8 micrograms/ml

RRRPRPVPRPFPRPVPRPLPRPFPRPF [SEQ ID NO: 61]
MBC (M. luteus (ATCC 9341) [1]): >128 micrograms/ml | MBC (B. subtilis (ATCC 6633) [2]): 64 micrograms/ml | MEC (S. carnosus [3]): 1.7 micrograms/ml | MIC (M. luteus (ATCC 9341) [4]): 64 micrograms/ml | MBC (S. carnosus [5]): 64 micrograms/ml | MBC [6]: >128 micrograms/ml | MEC (S. simulans [7]): 0.8 micrograms/ml | MEC [8]: 32 micrograms/ml | MIC [9]: >128 micrograms/ml | MIC (S. carnosus [10]): 4 micrograms/ml | MIC (E. coli (ATCC 10536) [11]): 128 micrograms/ml | MBC (E. coli (ATCC 10536) [12]): 128 micrograms/ml | MEC (B. subtilis (ATCC 6633) [13]): 2.4 micrograms/ml | MEC (E. coli (ATCC 10536) [14]): 3.0 micrograms/ml | MBC (S. simulans [15]): 64 micrograms/ml | MIC (B. subtilis (ATCC 6633) [16]): 16 micrograms/ml | MIC (S. simulans [17]): 16 micrograms/ml | MEC (M. luteus (ATCC 9341) [18]): 0.4 micrograms/ml
